Measurements: article PMC3423359
Results are given in words; binding and its absence hold for the method and conditions named. For some of these results: In cells and extracts the contact can be indirect. Some binding calls cover weakened binding; strength is not graded here. One block for each substance: values may come before it.

By UniProt entry, the sequences of proteins in these tests, tags left out. Where a name states a change or a piece, a line headed by the entry shows the natural chain unless it says otherwise.
UniProt Q00987: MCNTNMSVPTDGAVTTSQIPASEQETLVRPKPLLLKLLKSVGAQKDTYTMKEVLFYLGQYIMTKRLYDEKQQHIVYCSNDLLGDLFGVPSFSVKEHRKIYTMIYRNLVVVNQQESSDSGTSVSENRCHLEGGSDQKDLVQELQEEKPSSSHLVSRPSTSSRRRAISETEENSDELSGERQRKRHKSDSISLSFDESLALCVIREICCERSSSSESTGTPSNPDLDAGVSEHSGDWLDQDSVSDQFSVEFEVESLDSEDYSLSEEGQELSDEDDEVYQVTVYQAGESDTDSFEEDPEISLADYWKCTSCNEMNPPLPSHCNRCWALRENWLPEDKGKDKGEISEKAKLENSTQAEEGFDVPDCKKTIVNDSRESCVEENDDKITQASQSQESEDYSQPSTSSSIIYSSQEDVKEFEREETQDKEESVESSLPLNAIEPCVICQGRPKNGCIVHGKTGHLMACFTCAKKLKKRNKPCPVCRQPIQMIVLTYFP
UniProt P48729: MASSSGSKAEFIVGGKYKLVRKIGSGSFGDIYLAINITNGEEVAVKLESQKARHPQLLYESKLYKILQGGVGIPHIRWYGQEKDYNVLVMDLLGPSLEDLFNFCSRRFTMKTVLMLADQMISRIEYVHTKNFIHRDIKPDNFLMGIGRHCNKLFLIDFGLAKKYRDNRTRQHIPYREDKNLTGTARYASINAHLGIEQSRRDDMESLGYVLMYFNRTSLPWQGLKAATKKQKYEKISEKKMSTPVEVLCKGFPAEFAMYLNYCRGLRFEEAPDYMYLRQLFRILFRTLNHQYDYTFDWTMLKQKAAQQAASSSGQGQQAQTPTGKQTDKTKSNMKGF

Tests used:
[1] = target: murine double minute chromosome 2 (MDM2) oncoprotein, endogenous in A375 cells (human (endogenous in A375)) (UniProt Q00987); assay: co-IP; A375 lysate, untransfected or transfected with untagged MDM2; MDM2 (antibodies 2A10, 2A9, 4B2, 3G5, SMP14) or CK1α (antibody C-19) immunoprecipitated on Protein G Sepharose; Western blot
[2] = target: untagged MDM2 transfected into A375 cells (pCMV wild type MDM2) (UniProt Q00987); assay: as above
[3] = target: purified GST-cleaved MDM2 (UniProt Q00987); assay: ELISA; inverse: 50 ng GST-cleaved MDM2 coated on the plate, titration of GST-CK1α sp1 or sp2 in 3% BSA/PBS, 1 hour at room temperature; anti-CK1α, ECL; both purified
[4] = target: T1, CK1α peptide 35 (biotin-SGSG-15-mer) (human); assay: pull-down; 10 µg biotinylated CK1α peptide on streptavidin-agarose columns; 0.5 mg pre-cleared A375 lysate, 1 hour at room temperature; immunoblot for MDM2; only the target purified
T1 sequence (peptide, biotin on the N-terminus): SGSGDYMYLRQLFRILFRT

[5] = target: One-STrEP-tagged CK1α splice variant 2 (human) (UniProt P48729); assay: pull-down; One-STrEP-tagged CK1α sp1 or sp2 transfected into A375; 3 mg lysate (0.2% Triton) on strep-Tactin MacroPrep, 1 hour at 4°C; Western blot for endogenous MDM2
[6] = target: CK1α splice variant 2, endogenous in A375 cells (human (endogenous in A375)) (UniProt P48729); assay: co-IP; A375 lysate, untransfected or transfected with untagged MDM2; MDM2 (antibodies 2A10, 2A9, 4B2, 3G5, SMP14) or CK1α (antibody C-19) immunoprecipitated on Protein G Sepharose; Western blot
[7] = target: GST-CK1α splice variant 2 (human) (UniProt P48729); assay: ELISA; 20 ng GST-CK1α sp1 or sp2 coated on the plate, titration of GST-cleaved MDM2 in 3% BSA/PBS, 1 hour at room temperature; anti-MDM2 2A10, ECL; both purified
[8] = target: T1, CK1α peptide 35 (biotin-SGSG-15-mer) (human); assay: ELISA; biotinylated CK1α peptides (1 µg per well) on streptavidin coated plates; 20 ng GST-cleaved MDM2 in 3% BSA/PBS, 1 hour; anti-MDM2, ECL; both purified
[9] = target: GST-CK1α splice variant 2 (human) (UniProt P48729); assay: ELISA; competition: fixed amount of MDM2 pre-incubated 20 min at room temperature with a titration of peptide in 25 mM Hepes (pH 7.5), 50 mM KCl, 10 mM MgCl2, then added to GST-CK1α sp2 (20 ng/well) coated on the plate; both purified

binding [1]: binds | binding [2]: binds
Substance: CK1α splice variant 2, endogenous in A375 cells (from UniProt P48729-1 1-337)

binding [4]: binds | binding [5]: binds | binding [6]: binds
Substance: murine double minute chromosome 2 (MDM2) oncoprotein, endogenous in A375 cells (from UniProt Q00987 1-491)

The remaining lines, values behind:

Substance: GST-CK1α splice variant 2 (from UniProt P48729-1 1-337)
binding [3]: binds

Substance: purified GST-cleaved MDM2 (from UniProt Q00987 1-491)
binding [7]: binds | binding [8]: binds | binding [9]: binds

Substance: untagged MDM2 transfected into A375 cells (pCMV wild type MDM2) (from UniProt Q00987 1-491)
binding [6]: binds
